Results deposited as PubChem BioAssay AID686943 (Drosophila RNAi Screening Center, 2013).
The screen tested about 23,000 reagents; below is a random part of those that have a named target and a result. 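Extra replicates exist only for a retested subset of genes; insulin dose and duration not given; both raised and lowered dpERK matter.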 A plus sign joins genes that one reagent is predicted to hit. Reagent sequences are not shown. The record does not give: the amount of reagent, the time to read-out.

- Purpose: 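Knockdowns that increase or decrease active ERK after insulin receptor stimulation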 (primary screen)
- System: Drosophila S2R+ haemocyte-like cells expressing YFP-tagged ERK (Rolled)
- Reagent: long dsRNA against Drosophila genes
- Treatment: insulin stimulation versus unstimulated cells; dose and duration not given
- Measured: 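Antibody staining for doubly phosphorylated ERK divided by ERK-YFP signal, as plate z-scores, in insulin-treated and untreated cells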
- Scale: replicate 1, z-score of dpERK with insulin and replicate 2, z-score of dpERK with insulin: higher = more active ERK per ERK-YFP after insulin; replicate 1, z-score of dpERK under basal conditions: higher = more basal active ERK per ERK-YFP; replicate 1, z-score of ERK-YFP with insulin: higher = more YFP-tagged ERK signal

| gene knocked down | dsRNA | replicate 1, z-score of dpERK with insulin | replicate 2, z-score of dpERK with insulin | replicate 1, z-score of dpERK under basal conditions | replicate 1, z-score of ERK-YFP with insulin |
| --- | --- | --- | --- | --- | --- |
| PolI | DRSC16267 | 0.66 | -0.04 | -1.04 | 1.24 |
| Rep | DRSC07526 | -0.9 | -0.94 | -0.84 | -0.04 |
| CG7065 | DRSC18420 | 1.28 | 1.1 | -0.09 | 1.32 |
| CG43131 | DRSC12046 | 0.18 | -0.55 | 0.43 | 0.28 |
| CG16820 | DRSC02522 | -0.4 | -0.46 | 1.12 | 0.2 |
| CG30288 | DRSC22005 | 0.29 | 0.65 | 0.06 | 1.56 |
| CG5177 | DRSC02824 | -0.49 | 0.41 | -0.1 | 0.24 |
| Diap1 | DRSC11404 | -8.62 | -3.82 | 0.49 | -12.6 |
| CG11638 | DRSC18167 | 0.68 | 0.28 | 0.19 | -0.47 |
| CG11638 | DRSC18640 | 0.71 | -0.07 | -0.09 | 0.41 |
| Mtpalpha | DRSC01994 | 0.21 | 0.88 | -0.39 | 0.85 |
| CG43127 | DRSC09039 | -0.25 | 0.15 | 0.01 | 0.48 |
| bgm | DRSC03495 | -0.69 | -0.88 | -2.68 | -0.84 |
| Recs1 | DRSC16545 | -0.4 | -1.51 | 0.42 | 0.64 |
| RpS25 | DRSC16837 | -0.04 | 0.15 | 1.03 | -1.9 |
| CG15233 | DRSC04967 | -0.07 | -0.04 | -1.19 | -0.41 |
| CG10348 | DRSC02043 | 0.46 | 1.88 | 1.09 | -0.62 |
| CG10348 | DRSC21908 | -0.01 | 1.1 | -1 | 0.66 |
| snRNA:U4atac | DRSC12055 | 0.07 | 0.23 | 0.4 | 0.56 |
| CG43693 | DRSC09086 | 0.43 | 0.4 | 1.03 | 0.34 |
| CG43693 | DRSC10625 | 0.08 | -0.96 | 0.36 | -0.26 |
| CG10184 | DRSC14204 | -0.34 | -0.05 | -0.41 | 0 |
| CG7551 | DRSC10876 | -1.09 | -0.43 | 0.06 | 0.65 |
| DCP1 | DRSC04091 | 0.25 | 0.85 | 0.15 | -0.69 |
| CG8635 | DRSC07226 | 0.08 | 0.05 | -0.62 | -0.1 |
| CG14563 | DRSC11724 | 0.96 | 0.26 | -0.89 | -0.3 |
| Hip14 | DRSC10570 | 1.37 | 0.57 | 0.46 | 0.12 |
| geminin | DRSC04984 | -1.14 | -0.46 | -1.53 | 0.25 |
| ENGase | DRSC19952 | 0.61 | 1.36 | -0.18 | -0.28 |
| ENGase | DRSC19953 | 0.16 | 0.98 | 0.28 | 0.36 |
| Tom7 | DRSC05135 | -0.25 | 0 | 1.1 | 0.43 |
| Tom7 | DRSC07113 | -0.25 | 0.03 | 0.8 | 0.71 |

In a second layout: entries from further up.
gene knocked down,dsRNA,"replicate 1, z-score of dpERK with insulin","replicate 2, z-score of dpERK with insulin","replicate 1, z-score of dpERK under basal conditions","replicate 1, z-score of ERK-YFP with insulin"
DCP1,DRSC04091,0.25,0.85,0.15,-0.69
CG8635,DRSC07226,0.08,0.05,-0.62,-0.1
CG14563,DRSC11724,0.96,0.26,-0.89,-0.3

Next entries follow:
| gene knocked down | dsRNA | replicate 1, z-score of dpERK with insulin | replicate 2, z-score of dpERK with insulin | replicate 1, z-score of dpERK under basal conditions | replicate 1, z-score of ERK-YFP with insulin |
| --- | --- | --- | --- | --- | --- |
| CG34251 | DRSC09498 | 0.38 | -0.21 | 0.59 | 0.07 |
| CG34251 | DRSC09500 | 0.55 | -0.37 | 0.08 | -0.02 |
| Tti1 | DRSC15163 | -0.26 | 0.51 | -0.02 | -0.08 |
| Vps26 | DRSC18555 | -0.29 | 0.49 | -0.77 | 0.11 |
| NijB | DRSC09850 | 0.26 | -0.81 | 0.47 | 0.51 |
| Art8 | DRSC02530 | 0.21 | 0.09 | 0.73 | 0.73 |
| IA-2 | DRSC00304 | 0.31 | -0.08 | -0.11 | -0.8 |
| IA-2 | DRSC00652 | 1.33 | 1.2 | -0.6 | -1.1 |
| CG12325 | DRSC06130 | 0.16 | -0.2 | 0.69 | 0.02 |
| CG9192 | DRSC08639 | 0.12 | 0.1 | -0.32 | 0.25 |
| Naprt | DRSC00630 | -0.36 | -0.86 | -0.5 | 0.22 |
| CG12869 | DRSC06208 | 0.53 | 0.67 | -0.17 | -0.37 |
| CG34427 | DRSC09978 | 0.16 | 0.65 | 1.94 | 0.42 |
| Hs3st-A | DRSC06507 | -2.32 | -2.69 | -3.35 | -1.61 |
| Hs3st-A | DRSC06508 | 0.93 | 0.68 | 0.35 | -0.35 |
| Hs3st-A | DRSC06509 | -1.26 | -0.22 | 1.16 | 0.11 |
| CG43691 | DRSC06650 | 0.78 | 0.28 | -0.07 | 0.04 |
| CG43691 | DRSC06651 | 0.25 | 0.68 | 0.22 | 0.75 |
| Pal1 + Pdrg1 | DRSC06587 | -0.68 | -0.73 | -0.45 | 0.36 |
| MTF-1 | DRSC08983 | -0.31 | 0.34 | -0.37 | -0.02 |
| MTF-1 | DRSC11217 | 0.69 | -0.14 | 0.5 | 0.02 |
| MTF-1 | DRSC21341 | 1.29 | 0.98 | -0.95 | 0.06 |
| Kr-h1 | DRSC00908 | -1.05 | 0.44 | -0.49 | -0.48 |
| Kr-h1 | DRSC03355 | 0.89 | 0.62 | 0.45 | 0.47 |
| Zcchc7 | DRSC11099 | 1.75 | 0.24 | -0.45 | -4.94 |
